Experimental data reported in the supplement of paper PMC10849652.
The list shows a part of the results.

Sequences of proteins named here, by UniProt entry; tags and fusion partners are left off. A change or cut given only in a name is not applied to a line headed by its entry.
UniProt Q9Y6I9: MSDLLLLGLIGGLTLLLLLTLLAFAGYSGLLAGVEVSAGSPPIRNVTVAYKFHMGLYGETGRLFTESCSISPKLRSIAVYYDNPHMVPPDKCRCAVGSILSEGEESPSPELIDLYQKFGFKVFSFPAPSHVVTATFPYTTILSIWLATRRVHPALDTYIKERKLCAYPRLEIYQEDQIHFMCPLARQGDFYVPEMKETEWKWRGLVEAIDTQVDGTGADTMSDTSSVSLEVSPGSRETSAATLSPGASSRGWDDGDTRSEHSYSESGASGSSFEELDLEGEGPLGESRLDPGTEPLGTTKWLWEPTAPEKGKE
UniProt Q9Y5J7: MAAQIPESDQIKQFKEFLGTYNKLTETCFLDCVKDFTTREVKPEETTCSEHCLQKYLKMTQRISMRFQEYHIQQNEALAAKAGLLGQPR
UniProt Q9UP52: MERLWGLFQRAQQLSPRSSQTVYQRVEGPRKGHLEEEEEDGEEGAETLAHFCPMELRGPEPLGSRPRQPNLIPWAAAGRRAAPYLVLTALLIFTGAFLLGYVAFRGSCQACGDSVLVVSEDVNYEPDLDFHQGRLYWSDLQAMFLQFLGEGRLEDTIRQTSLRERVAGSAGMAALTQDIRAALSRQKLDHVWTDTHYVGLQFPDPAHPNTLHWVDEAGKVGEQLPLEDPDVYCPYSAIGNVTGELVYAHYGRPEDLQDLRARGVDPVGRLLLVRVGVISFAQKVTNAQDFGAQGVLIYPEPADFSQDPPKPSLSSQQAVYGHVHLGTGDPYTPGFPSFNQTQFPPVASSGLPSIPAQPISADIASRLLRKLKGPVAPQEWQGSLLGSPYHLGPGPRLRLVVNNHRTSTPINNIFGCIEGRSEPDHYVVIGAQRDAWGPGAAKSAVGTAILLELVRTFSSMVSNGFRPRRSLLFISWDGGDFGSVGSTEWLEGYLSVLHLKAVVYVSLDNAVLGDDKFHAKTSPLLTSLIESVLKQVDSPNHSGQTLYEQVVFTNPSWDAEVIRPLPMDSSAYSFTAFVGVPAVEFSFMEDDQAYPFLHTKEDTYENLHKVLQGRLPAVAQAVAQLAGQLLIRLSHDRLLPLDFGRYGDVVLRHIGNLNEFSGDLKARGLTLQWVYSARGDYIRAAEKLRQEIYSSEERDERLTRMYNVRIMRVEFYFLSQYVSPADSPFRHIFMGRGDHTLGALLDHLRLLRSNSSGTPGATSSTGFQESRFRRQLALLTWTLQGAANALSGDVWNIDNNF
UniProt Q9BZK7: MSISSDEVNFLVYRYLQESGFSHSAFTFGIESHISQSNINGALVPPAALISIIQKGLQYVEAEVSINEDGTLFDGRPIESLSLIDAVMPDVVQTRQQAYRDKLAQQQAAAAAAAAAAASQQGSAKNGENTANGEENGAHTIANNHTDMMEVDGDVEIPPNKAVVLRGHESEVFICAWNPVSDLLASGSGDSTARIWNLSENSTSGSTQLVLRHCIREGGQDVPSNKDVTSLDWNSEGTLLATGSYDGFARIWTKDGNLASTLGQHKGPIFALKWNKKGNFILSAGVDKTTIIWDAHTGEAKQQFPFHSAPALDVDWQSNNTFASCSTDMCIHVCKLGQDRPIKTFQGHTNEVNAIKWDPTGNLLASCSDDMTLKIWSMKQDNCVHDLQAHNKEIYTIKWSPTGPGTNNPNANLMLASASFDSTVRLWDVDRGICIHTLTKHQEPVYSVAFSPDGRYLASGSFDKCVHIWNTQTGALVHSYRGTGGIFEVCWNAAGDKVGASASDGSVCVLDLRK
UniProt P36897: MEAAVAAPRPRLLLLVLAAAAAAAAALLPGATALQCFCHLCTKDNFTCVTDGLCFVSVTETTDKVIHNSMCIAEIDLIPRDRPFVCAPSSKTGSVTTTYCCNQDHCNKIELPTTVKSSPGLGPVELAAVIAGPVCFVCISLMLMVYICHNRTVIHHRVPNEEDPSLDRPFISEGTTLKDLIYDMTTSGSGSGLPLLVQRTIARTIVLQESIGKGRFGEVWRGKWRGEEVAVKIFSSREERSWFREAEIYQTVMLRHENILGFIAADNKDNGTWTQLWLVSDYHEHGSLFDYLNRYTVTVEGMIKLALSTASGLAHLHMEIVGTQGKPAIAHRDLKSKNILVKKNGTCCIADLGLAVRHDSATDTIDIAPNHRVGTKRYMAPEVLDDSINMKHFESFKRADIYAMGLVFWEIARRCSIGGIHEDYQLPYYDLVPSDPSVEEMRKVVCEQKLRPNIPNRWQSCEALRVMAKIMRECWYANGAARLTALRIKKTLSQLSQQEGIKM
UniProt Q15814: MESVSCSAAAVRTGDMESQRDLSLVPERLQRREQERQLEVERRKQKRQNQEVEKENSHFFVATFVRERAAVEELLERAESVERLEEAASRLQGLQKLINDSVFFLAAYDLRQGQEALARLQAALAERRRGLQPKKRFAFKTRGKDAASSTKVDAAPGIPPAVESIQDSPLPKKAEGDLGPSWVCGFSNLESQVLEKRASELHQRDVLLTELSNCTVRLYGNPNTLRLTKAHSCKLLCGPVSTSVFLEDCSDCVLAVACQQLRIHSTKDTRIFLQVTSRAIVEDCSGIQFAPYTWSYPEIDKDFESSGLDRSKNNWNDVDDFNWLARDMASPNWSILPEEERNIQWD
UniProt Q9UGI8: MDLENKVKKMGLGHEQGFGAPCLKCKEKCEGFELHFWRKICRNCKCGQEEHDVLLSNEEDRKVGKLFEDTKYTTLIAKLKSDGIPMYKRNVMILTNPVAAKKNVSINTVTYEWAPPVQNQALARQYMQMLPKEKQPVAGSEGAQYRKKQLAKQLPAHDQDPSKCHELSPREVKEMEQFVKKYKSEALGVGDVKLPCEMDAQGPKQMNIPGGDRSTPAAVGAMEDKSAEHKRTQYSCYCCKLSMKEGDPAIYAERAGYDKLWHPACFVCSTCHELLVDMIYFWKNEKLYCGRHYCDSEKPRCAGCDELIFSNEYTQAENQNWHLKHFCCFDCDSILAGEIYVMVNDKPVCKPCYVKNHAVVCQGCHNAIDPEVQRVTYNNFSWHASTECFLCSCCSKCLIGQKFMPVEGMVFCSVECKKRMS
UniProt O60343: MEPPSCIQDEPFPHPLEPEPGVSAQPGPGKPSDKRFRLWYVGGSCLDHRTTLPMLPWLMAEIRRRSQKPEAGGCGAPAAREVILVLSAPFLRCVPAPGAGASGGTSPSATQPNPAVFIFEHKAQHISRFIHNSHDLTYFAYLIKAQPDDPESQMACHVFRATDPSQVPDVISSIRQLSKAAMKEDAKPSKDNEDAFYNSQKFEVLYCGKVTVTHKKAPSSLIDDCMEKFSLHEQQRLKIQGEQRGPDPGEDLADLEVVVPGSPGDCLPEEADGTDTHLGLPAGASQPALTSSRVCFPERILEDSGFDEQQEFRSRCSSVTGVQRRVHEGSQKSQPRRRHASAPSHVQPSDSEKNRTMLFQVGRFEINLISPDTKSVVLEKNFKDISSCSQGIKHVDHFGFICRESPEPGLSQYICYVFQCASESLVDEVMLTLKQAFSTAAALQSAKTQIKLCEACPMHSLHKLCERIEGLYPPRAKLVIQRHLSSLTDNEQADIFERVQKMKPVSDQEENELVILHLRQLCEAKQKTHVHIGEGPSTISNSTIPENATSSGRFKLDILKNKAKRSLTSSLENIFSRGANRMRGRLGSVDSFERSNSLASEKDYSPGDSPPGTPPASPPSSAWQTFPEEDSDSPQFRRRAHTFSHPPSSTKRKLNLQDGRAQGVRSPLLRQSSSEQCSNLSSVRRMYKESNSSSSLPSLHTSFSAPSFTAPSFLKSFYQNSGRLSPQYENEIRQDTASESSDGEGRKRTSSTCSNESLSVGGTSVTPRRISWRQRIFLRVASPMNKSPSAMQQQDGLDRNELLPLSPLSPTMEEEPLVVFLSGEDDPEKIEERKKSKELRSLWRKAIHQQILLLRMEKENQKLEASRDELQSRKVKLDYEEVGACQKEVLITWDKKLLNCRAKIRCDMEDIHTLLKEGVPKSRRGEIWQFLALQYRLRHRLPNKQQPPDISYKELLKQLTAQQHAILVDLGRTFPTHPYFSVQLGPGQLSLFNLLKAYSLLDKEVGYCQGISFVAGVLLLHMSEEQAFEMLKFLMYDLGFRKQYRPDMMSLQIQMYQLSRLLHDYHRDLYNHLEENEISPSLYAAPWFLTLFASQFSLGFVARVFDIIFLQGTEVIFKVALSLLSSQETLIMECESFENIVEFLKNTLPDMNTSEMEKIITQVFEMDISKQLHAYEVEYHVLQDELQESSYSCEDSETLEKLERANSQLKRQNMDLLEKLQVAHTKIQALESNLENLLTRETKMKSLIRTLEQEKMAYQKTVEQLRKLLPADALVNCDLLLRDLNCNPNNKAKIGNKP
UniProt Q01085: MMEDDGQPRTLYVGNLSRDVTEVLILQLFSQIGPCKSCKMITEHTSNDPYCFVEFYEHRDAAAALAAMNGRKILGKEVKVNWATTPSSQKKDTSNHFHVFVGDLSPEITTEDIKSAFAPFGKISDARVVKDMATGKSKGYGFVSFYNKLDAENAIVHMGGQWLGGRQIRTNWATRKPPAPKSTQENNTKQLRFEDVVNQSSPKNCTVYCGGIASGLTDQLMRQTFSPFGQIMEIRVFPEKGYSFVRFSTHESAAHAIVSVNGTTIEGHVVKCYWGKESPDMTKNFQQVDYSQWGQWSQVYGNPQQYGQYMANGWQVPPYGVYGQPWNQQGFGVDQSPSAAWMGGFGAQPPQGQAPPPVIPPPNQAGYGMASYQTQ
UniProt Q04726: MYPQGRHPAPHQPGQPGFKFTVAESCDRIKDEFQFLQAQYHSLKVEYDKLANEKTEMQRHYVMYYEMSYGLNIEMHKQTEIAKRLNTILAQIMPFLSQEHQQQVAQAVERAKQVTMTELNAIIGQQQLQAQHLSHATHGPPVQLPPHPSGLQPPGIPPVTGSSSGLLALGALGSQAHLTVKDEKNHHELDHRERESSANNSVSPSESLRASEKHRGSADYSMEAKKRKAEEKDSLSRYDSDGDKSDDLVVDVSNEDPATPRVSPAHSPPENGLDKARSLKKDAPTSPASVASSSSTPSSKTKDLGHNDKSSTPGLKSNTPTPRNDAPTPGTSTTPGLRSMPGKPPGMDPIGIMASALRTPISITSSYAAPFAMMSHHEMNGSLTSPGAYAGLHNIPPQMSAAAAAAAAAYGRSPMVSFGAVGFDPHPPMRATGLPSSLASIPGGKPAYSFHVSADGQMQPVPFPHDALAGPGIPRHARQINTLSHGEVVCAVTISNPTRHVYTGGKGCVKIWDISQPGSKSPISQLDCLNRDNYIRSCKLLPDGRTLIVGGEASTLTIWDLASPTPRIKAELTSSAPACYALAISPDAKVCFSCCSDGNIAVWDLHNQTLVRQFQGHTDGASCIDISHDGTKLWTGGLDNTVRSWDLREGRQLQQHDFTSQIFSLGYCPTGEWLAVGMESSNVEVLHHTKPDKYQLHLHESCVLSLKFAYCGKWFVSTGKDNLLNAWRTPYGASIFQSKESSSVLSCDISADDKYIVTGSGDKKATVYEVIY
UniProt O95551: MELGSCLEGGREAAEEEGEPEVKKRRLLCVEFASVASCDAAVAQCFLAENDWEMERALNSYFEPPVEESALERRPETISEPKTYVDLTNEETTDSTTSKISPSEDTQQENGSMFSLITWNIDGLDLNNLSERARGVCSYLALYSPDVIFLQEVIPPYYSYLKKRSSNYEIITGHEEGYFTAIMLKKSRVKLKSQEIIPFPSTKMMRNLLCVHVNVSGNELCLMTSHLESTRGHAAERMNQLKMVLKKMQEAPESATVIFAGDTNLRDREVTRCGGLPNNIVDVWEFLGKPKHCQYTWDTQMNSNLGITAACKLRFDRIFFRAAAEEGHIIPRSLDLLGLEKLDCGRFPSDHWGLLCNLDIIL
UniProt Q9Y5L4: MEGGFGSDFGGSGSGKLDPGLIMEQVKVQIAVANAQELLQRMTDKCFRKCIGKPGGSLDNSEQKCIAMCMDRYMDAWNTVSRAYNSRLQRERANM
UniProt Q8TC07: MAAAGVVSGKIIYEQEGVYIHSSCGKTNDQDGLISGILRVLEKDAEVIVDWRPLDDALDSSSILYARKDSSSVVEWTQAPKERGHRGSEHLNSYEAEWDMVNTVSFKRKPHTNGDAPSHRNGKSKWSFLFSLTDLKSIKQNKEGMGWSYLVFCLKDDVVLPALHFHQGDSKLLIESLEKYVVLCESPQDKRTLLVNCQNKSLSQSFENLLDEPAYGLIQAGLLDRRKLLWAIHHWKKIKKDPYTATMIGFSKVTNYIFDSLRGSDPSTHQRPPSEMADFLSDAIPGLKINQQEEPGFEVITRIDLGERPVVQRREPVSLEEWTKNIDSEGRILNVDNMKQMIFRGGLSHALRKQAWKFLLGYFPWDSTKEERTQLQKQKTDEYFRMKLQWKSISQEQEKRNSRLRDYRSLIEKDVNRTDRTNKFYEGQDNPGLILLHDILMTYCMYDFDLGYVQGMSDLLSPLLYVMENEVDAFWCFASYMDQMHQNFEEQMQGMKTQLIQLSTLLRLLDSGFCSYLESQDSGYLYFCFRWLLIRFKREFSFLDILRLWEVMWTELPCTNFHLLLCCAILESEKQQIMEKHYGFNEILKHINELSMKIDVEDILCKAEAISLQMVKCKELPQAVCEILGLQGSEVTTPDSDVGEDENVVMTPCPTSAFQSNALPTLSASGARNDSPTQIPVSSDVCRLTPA

Compound: COc1cccc2cc(-c3nc([C@H]4CC[C@H](C(=O)O)CC4)n4ncnc(N)c34)[nH]c12
Test: log2 fold change, soluble protein after heating vs DMSO (PISA); higher = thermal stabilisation; K562 cells, 10 uM, 30 min; active = over 0.2 and 3.5 SD of the protein, either way, in both replicates (recomputed)
In short: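 For each measurement, 10 μM compound was applied for 30 min to K562 cells at 2×10^6 cells/mL. Aliquots were heated for 3 min across 48°C-58°C, pooled, and extracted in PBS with 0.5% NP-40 at 4°C; the supernatant after 21,000xg for 90 min was soluble protein. This was quantified by TMTpro 16plex LC-MS/MS with channel sums equalised, and thermal stability was reported relative to control samples from duplicates, on a log2 fold-change scale.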

log2 fold change, inactive:
TEX264 (UniProt Q9Y6I9) -0.046
THOP1 (UniProt P52888) 0.007
TGFBRAP1 (UniProt Q8WUH2) -0.103
TIMM9 (UniProt Q9Y5J7) 0.063
TCF3 (UniProt P15923) -0.027
TIMM10 (UniProt P62072) 0.03
TFR2 (UniProt Q9UP52) 0.041
TBL1XR1 (UniProt Q9BZK7) 0.043
TBC1D9B (UniProt Q66K14) 0.03
TKFC (UniProt Q3LXA3) 0.069
TGFBR1 isoform 2 (UniProt P36897) -0.041
TCOF1 isoform 4 (UniProt Q13428) -0.002
TIMM8A (UniProt O60220) 0
THUMPD2 (UniProt Q9BTF0) 0.006
TFB2M (UniProt Q9H5Q4) 0.037
TIMM17A (UniProt Q99595) 0.06
TFRC (UniProt P02786) 0.063
THG1L (UniProt Q9NWX6) 0.032
TBCC (UniProt Q15814) 0.002
TES (UniProt Q9UGI8) -0.013
TELO2 (UniProt Q9Y4R8) -0.125
TBCA (UniProt O75347) 0.055
TBC1D4 (UniProt O60343) -0.015
TIAL1 isoform 2 (UniProt Q01085) 0.02
TLE3 isoform 4 (UniProt Q04726) -0.049
TGM2 (UniProt P21980) 0.014
TGFB1 (UniProt P01137) 0.051
TDP2 isoform 2 (UniProt O95551) 0.083
TECR (UniProt Q9NZ01) 0.034
TIMM22 (UniProt Q9Y584) 0.012
THBS4 (UniProt P35443) 0.265
TERF2 (UniProt Q15554) -0.257
TICAM2 isoform 2 (UniProt Q86XR7) 0.025
TIMM13 (UniProt Q9Y5L4) -0.01
TBL1X (UniProt O60907) 0.08
TF (UniProt P02787) 0.4
THOC5 (UniProt Q13769) 0.01
TBC1D15 isoform 3 (UniProt Q8TC07) -0.06
TESC (UniProt Q96BS2) 0.087
TCERG1 (UniProt O14776) -0.003

No new results follow: entries from further up.
log2 fold change, inactive:
TBL1XR1 (UniProt Q9BZK7) 0.043
TBC1D9B (UniProt Q66K14) 0.03
